The target of the experiment is T1, Agα1p (C-terminal half of S. cerevisiae α-agglutinin) displayed on P. pastoris control cells (S. cerevisiae) (UniProt P20840).
T1 sequence: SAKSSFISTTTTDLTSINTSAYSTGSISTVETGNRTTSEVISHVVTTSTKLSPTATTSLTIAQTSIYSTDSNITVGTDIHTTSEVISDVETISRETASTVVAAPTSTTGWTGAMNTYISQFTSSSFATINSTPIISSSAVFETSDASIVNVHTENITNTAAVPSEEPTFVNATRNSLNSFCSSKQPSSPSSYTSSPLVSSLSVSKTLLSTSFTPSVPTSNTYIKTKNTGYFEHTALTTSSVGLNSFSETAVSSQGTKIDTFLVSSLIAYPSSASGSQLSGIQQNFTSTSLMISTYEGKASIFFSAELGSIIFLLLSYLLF
In words: ELISA; whole-cell sandwich ELISA: yeast cells (OD600 = 10, 10^8 cells/ml) displaying the target incubated with purified protein (10 to 2×10^4 ng/ml) in PBS with 1% BSA, room temperature, 1 h; bound protein detected with polyclonal rabbit antibody and HRP anti-rabbit IgG; only the binder purified. (In general: In an ELISA, binding on a coated surface is turned into a signal by an enzyme label.)

No constants are given. Whether binding was seen depends on the method and setting.

As to “purified PmRab7 (free, unmodified) (Penaeus monodon)”, the binding result is reported as “no binding (tested: 2×10^4 ng/ml)”. Take “purified VP28 (free, unmodified) (white spot syndrome virus (WSSV))”: the binding entry was “no binding (tested: 2×10^4 ng/ml)”.

For the origin of these results see publication PMC4471349.
